Laboratory results from the supplement of paper PMC10849652.
The other results are listed elsewhere or left out.

Sequences of proteins named here, by UniProt entry; tags and fusion partners are left off. A change or cut given only in a name is not applied to a line headed by its entry.
UniProt Q15014, whole entry, looked up: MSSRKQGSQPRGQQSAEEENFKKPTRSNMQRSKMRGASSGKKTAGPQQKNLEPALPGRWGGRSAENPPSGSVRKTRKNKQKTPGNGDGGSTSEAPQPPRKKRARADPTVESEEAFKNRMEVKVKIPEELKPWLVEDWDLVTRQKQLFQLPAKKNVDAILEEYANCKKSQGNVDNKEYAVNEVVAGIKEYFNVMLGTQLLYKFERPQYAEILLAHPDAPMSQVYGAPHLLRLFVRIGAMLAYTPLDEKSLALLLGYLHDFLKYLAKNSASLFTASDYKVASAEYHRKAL
UniProt Q9BQP7: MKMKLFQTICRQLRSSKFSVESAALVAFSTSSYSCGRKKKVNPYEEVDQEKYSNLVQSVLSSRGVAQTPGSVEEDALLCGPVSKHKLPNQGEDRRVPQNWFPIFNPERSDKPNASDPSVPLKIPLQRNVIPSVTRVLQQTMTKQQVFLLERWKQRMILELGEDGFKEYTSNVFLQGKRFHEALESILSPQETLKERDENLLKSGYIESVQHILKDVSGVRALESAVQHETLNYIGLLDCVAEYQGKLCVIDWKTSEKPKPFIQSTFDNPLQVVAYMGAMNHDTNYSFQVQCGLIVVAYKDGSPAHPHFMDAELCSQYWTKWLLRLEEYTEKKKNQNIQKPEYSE
UniProt Q9BU76: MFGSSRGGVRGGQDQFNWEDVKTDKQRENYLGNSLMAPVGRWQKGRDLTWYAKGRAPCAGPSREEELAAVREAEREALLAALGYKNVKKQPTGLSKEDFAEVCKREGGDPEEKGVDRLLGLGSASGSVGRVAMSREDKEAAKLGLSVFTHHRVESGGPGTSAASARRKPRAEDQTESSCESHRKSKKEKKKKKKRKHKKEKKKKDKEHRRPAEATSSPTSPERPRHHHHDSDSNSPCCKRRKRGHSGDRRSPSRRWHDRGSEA
UniProt Q9NZB8: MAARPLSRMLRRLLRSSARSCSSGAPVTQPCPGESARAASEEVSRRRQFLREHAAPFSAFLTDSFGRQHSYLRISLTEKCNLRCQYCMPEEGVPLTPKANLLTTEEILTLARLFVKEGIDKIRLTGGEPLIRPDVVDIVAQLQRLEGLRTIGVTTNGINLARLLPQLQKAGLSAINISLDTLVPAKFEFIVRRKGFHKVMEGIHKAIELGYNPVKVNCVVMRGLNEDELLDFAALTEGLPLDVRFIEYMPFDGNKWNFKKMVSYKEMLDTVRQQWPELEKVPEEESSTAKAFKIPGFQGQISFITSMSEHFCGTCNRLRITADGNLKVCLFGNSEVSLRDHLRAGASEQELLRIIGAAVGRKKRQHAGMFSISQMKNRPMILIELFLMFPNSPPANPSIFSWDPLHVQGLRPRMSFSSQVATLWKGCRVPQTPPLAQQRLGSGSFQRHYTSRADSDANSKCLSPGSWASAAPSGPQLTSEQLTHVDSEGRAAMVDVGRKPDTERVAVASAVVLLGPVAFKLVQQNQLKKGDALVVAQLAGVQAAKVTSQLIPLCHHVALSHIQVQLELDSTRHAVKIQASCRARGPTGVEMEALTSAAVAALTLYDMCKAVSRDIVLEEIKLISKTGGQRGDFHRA
UniProt Q8N5J2: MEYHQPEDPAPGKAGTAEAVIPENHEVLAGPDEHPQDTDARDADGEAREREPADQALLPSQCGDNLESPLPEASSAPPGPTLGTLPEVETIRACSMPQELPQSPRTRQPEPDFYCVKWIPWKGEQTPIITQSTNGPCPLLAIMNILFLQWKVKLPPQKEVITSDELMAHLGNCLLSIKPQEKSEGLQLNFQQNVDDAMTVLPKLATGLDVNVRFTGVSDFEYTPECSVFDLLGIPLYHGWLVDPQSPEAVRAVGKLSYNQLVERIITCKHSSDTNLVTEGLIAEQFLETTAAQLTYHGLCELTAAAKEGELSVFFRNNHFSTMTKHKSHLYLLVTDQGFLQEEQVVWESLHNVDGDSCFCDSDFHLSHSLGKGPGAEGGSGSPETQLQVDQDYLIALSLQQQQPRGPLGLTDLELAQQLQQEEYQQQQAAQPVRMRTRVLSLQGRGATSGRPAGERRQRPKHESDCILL
UniProt Q13015: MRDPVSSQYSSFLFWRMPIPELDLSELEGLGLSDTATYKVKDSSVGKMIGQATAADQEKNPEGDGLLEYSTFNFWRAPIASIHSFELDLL
UniProt Q96PC5: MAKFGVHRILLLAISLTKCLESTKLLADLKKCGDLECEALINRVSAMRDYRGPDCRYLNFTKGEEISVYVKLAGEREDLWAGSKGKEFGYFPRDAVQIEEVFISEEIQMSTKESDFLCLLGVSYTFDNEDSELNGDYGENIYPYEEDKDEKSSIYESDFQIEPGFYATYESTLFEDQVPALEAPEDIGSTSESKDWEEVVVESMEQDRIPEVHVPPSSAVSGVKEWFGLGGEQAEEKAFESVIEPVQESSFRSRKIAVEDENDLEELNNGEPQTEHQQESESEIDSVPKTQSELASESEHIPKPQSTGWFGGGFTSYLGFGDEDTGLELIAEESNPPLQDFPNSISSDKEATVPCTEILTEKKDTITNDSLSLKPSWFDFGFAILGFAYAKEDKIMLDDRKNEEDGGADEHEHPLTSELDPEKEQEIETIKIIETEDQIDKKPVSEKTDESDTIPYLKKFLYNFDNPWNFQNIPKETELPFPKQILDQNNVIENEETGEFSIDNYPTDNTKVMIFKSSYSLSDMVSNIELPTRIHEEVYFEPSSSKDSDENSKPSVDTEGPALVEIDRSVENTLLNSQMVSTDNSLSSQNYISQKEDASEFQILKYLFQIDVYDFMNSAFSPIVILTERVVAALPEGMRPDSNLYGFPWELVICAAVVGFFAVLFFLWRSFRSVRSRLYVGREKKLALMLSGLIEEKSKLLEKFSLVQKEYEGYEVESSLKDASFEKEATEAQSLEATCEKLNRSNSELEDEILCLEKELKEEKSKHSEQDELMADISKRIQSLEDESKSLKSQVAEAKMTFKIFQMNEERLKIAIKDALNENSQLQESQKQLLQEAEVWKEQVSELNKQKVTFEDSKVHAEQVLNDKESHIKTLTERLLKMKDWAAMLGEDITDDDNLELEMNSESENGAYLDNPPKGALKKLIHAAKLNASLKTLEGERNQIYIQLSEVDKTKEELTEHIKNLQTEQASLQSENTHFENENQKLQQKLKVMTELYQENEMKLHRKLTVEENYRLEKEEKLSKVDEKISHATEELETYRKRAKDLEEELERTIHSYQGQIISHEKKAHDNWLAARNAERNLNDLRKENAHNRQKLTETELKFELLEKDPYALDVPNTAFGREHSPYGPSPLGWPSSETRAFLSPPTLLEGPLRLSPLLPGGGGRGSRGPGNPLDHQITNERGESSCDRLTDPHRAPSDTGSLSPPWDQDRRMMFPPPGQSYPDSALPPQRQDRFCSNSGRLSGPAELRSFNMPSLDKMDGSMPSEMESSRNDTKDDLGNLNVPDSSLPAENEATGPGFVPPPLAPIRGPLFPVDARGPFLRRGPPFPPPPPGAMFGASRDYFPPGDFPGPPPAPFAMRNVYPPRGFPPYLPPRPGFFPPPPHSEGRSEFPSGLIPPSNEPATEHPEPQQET
UniProt Q9UL63, whole entry, looked up: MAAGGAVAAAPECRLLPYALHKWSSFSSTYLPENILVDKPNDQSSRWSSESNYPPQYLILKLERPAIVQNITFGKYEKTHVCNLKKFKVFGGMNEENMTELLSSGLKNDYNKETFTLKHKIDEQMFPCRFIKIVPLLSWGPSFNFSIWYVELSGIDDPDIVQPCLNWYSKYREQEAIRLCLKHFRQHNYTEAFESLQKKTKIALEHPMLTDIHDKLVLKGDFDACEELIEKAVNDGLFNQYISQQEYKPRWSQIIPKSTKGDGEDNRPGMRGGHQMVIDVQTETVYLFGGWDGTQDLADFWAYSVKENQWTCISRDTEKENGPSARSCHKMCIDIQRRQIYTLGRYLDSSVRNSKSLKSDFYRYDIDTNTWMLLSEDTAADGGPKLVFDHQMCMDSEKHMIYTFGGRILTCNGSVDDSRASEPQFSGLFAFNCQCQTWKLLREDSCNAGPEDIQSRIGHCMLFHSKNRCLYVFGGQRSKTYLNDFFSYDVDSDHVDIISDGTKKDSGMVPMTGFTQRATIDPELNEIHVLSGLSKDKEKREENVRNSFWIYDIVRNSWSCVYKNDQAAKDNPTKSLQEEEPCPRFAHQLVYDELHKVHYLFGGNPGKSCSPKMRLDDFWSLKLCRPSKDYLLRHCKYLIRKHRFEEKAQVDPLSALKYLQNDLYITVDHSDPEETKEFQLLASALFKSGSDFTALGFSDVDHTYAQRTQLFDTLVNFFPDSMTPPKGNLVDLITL
UniProt Q9UBU8, whole entry, looked up: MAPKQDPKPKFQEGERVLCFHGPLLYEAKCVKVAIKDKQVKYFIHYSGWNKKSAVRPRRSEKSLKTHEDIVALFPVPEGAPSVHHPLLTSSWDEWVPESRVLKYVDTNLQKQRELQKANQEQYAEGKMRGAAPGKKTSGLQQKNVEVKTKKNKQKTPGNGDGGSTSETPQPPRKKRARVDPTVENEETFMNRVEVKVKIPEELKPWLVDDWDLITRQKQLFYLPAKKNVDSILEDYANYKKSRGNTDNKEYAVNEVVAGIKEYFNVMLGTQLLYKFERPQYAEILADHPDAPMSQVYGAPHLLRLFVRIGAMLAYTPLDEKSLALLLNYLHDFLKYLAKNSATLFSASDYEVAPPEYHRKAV
UniProt Q9H081: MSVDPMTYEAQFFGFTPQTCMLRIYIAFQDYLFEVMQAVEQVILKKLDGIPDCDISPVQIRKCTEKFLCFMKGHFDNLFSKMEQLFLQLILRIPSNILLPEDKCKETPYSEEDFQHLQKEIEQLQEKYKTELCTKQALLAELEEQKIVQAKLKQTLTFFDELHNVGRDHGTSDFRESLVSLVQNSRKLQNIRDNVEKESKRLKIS
UniProt O95822: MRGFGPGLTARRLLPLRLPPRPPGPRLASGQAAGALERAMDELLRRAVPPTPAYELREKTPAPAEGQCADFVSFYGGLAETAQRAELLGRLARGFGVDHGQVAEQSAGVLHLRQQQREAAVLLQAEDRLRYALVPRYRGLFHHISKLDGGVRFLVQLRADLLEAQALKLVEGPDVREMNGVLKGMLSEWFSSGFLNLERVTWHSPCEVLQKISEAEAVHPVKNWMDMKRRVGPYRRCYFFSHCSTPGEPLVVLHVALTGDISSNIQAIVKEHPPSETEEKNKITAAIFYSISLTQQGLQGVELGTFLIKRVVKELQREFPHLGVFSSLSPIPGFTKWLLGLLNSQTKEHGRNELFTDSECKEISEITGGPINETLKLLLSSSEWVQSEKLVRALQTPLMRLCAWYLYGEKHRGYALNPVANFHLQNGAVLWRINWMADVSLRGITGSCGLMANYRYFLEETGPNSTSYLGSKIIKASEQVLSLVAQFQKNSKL
UniProt Q9H8M7: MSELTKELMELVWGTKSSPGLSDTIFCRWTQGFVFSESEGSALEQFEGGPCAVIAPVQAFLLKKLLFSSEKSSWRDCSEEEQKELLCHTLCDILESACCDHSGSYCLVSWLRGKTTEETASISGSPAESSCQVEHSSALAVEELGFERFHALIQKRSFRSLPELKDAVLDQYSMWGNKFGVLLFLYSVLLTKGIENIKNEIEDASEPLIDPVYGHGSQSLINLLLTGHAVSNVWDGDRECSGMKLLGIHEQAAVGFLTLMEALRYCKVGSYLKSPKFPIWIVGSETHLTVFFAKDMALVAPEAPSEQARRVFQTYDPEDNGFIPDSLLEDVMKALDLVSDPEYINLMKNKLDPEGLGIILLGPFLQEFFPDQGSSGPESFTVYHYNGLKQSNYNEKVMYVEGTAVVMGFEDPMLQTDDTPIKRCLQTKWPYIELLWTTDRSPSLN
UniProt O00566: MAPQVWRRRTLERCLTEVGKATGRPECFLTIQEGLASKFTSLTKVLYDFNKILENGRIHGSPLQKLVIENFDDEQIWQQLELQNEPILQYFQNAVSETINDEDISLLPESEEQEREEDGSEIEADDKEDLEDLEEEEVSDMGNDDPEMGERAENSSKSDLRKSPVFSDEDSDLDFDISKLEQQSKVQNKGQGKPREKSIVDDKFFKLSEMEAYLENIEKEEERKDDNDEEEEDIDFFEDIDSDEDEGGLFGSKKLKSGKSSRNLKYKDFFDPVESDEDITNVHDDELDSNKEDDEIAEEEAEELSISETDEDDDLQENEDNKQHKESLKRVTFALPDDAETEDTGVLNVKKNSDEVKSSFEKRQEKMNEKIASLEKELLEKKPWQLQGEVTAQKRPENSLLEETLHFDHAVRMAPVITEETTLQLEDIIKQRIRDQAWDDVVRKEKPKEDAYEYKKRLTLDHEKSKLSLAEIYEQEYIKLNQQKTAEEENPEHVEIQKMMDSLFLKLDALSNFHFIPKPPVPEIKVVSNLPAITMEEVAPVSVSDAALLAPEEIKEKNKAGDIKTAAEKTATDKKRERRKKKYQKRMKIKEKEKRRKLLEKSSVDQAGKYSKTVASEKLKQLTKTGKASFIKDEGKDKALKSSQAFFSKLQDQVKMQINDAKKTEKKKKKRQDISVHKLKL
UniProt Q5TGZ0: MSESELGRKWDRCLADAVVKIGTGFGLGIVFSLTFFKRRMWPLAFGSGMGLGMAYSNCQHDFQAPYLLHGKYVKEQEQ

Experiments:
Assay in all cases: log2 fold change, soluble protein after heating vs DMSO (PISA); higher = thermal stabilisation; K562 lysate, 10 uM; active = over 0.2 and 3.5 SD of the protein, either way, in both replicates (recomputed)
[1] = compound: Cc1cn(-c2cc(NC(=O)c3ccc(C)c(Nc4nccc(-c5cccnc5)n4)c3)cc(C(F)(F)F)c2)cn1 [nilotinib]
Method in brief: (§1)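 Values give the log-two fold change in thermal stability against solvent controls, from duplicates. Crude K562 extract at 1 mg/mL protein, made by dounce homogenisation in PBS pH 7.4 with 1 mM MgCl2, was treated with 10 μM compound for 30 min. After 3 min heating across 48°C-58°C, aliquots were pooled, adjusted to 0.5% NP-40 at 4°C and centrifuged at 21,000xg for 90 min. The supernatant was measured by TMTpro 16plex LC-MS/MS with channel sums equalised.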

[2] = compound: Cc1nc(Nc2n[nH]c3c2CN(C(=O)N[C@H](CN(C)C)c2ccccc2)C3(C)C)c2sccc2n1
Method in brief: as §1

[3] = compound: Cc1nc(Nc2ncc(C(=O)Nc3c(C)cccc3Cl)s2)cc(N2CCN(CCO)CC2)n1 [dasatinib]
Method in brief: as §1

[4] = compound: Cc1ncc(-c2ccnc(Nc3ccc(S(C)(=O)=O)cc3)n2)n1C(C)C
Method in brief: as §1

[5] = compound: Cn1cc(-c2ccc3c(c2)CCN3C(=O)Cc2cccc(C(F)(F)F)c2)c2c(N)ncnc21
Method in brief: as §1

[6] = compound: Cn1cc(CNCC2CCN(c3ncc(C(=O)NO)cn3)CC2)c2ccccc21 [quisinostat]
Method in brief: as §1

[7] = compound: Cn1cncc1[C@@](N)(c1ccc(Cl)cc1)c1ccc2c(c1)c(-c1cccc(Cl)c1)cc(=O)n2C [tipifarnib]
Method in brief: as §1

[8] = compound: NC(=O)Nc1cc(-c2cccc(F)c2)sc1C(=O)N[C@H]1CCCNC1
Method in brief: as §1

[9] = compound: NC(=O)c1cnc(N[C@@H]2CCCC[C@@H]2N)nc1Nc1cccc(-n2nccn2)c1
Method in brief: as §1

[10] = compound: NC1(c2ccc(-c3nc4ccn5c(=O)[nH]nc5c4cc3-c3ccccc3)cc2)CCC1
Method in brief: as §1

Measured: log2 fold change

MRPL20 (UniProt Q9BYC9)
inactive: [1] -0.059 | [2] -0.04 | [3] -0.083 | [4] 0.006 | [5] 0.053 | [6] -0.024 | [7] -0.018 | [8] 0.023 | [9] 0.086 | [10] -0.058

MRPL16 (UniProt Q9NX20)
inactive: [1] -0.033 | [2] -0.02 | [3] 0.042 | [4] 0.032 | [5] 0.072 | [6] -0.101 | [7] -0.044 | [8] 0.048 | [9] -0.049 | [10] 0.031

MGA (UniProt Q8IWI9)
inactive: [1] 0.043 | [2] 0.014 | [3] -0.193 | [4] -0.19 | [5] 0.007 | [6] -0.165 | [7] -0.046 | [8] 0.018 | [9] -0.083 | [10] -0.096

MORF4L2 (UniProt Q15014)
inactive: [1] 0 | [2] -0.035 | [3] -0.001 | [4] -0.012 | [5] -0.051 | [6] 0.005 | [7] -0.015 | [8] 0.002 | [9] -0.006 | [10] -0.002

MGME1 (UniProt Q9BQP7)
inactive: [1] 0.013 | [2] 0.028 | [3] 0.003 | [4] 0.008 | [5] -0.034 | [6] 0.005 | [7] 0.025 | [8] 0 | [9] 0.02 | [10] -0.003

MIEF1 (UniProt L0R8F8)
inactive: [1] -0.062 | [2] 0.025 | [3] -0.057 | [4] -0.037 | [5] 0.022 | [6] 0.053 | [7] -0.147 | [8] -0.085 | [9] 0.009 | [10] -0.013

MRPL14 (UniProt Q6P1L8)
inactive: [1] -0.059 | [2] -0.006 | [3] -0.06 | [4] -0.108 | [5] 0.032 | [6] -0.009 | [7] -0.009 | [8] -0.019 | [9] 0.043 | [10] 0.138

MMUT (UniProt P22033)
inactive: [1] -0.003 | [2] -0.021 | [3] 0.002 | [4] -0.019 | [5] 0.021 | [6] 0.053 | [7] 0.046 | [8] 0.014 | [9] 0.039 | [10] -0.004

MMTAG2 (UniProt Q9BU76)
inactive: [1] -0.008 | [2] -0.121 | [3] 0.018 | [4] 0.034 | [5] 0.005 | [6] -0.047 | [7] 0.021 | [8] -0.019 | [9] 0.013 | [10] 0.005

MOCS1 isoform 8 (UniProt Q9NZB8)
inactive: [1] 0.188 | [2] -0.03 | [3] 0.074 | [4] 0.227 | [5] -0.013 | [6] -0.082 | [7] -0.231 | [8] 0.093 | [9] 0.021 | [10] -0.033

MINDY1 isoform 3 (UniProt Q8N5J2)
inactive: [1] -0.03 | [2] 0.154 | [3] -0.086 | [4] 0.271 | [5] 0.159 | [6] -0.006 | [7] 0.022 | [8] -0.072 | [10] 0.038
active: [9] 0.548

MRE11 isoform 3 (UniProt P49959)
inactive: [1] 0.001 | [2] 0.032 | [3] 0.095 | [4] 0.008 | [5] 0.037 | [6] 0.013 | [7] 0.012 | [8] -0.01 | [9] -0.002 | [10] -0.002

MICOS13 (UniProt Q5XKP0)
inactive: [1] 0.001 | [2] -0.055 | [3] -0.052 | [4] -0.036 | [5] -0.032 | [6] 0.092 | [7] -0.136 | [8] 0.078 | [9] -0.02 | [10] -0.03

MLLT11 (UniProt Q13015)
inactive: [1] 0.068 | [2] 0.03 | [3] -0.015 | [4] -0.051 | [5] -0.06 | [6] -0.029 | [7] -0.204 | [8] 0.107 | [9] 0.011 | [10] 0.055

MIA2 (UniProt Q96PC5)
inactive: [1] 0.04 | [2] -0.003 | [3] -0.031 | [4] 0.067 | [5] 0.013 | [6] -0.054 | [7] -0.057 | [8] 0.042 | [9] 0.007 | [10] 0.042

MKLN1 (UniProt Q9UL63)
inactive: [1] 0.037 | [2] -0.005 | [3] -0.009 | [4] -0.013 | [5] 0.014 | [6] -0.019 | [7] 0.012 | [8] 0.024 | [9] 0 | [10] 0.005

MKI67 (UniProt P46013)
inactive: [1] -0.008 | [2] 0.032 | [3] 0.01 | [4] -0.007 | [5] -0.003 | [6] -0.02 | [7] -0.021 | [8] 0.031 | [9] -0.007 | [10] 0.025

MRPL15 (UniProt Q9P015)
inactive: [1] 0.011 | [2] -0.034 | [3] 0.004 | [4] -0.028 | [5] -0.008 | [6] -0.022 | [7] 0.012 | [8] 0.005 | [9] 0.012 | [10] -0.181

Six consecutive entries from above:
MOCS1 isoform 8 (UniProt Q9NZB8)
inactive: [1] 0.188 | [2] -0.03 | [3] 0.074 | [4] 0.227 | [5] -0.013 | [6] -0.082 | [7] -0.231 | [8] 0.093 | [9] 0.021 | [10] -0.033

MINDY1 isoform 3 (UniProt Q8N5J2)
inactive: [1] -0.03 | [2] 0.154 | [3] -0.086 | [4] 0.271 | [5] 0.159 | [6] -0.006 | [7] 0.022 | [8] -0.072 | [10] 0.038
active: [9] 0.548

MRE11 isoform 3 (UniProt P49959)
inactive: [1] 0.001 | [2] 0.032 | [3] 0.095 | [4] 0.008 | [5] 0.037 | [6] 0.013 | [7] 0.012 | [8] -0.01 | [9] -0.002 | [10] -0.002

MICOS13 (UniProt Q5XKP0)
inactive: [1] 0.001 | [2] -0.055 | [3] -0.052 | [4] -0.036 | [5] -0.032 | [6] 0.092 | [7] -0.136 | [8] 0.078 | [9] -0.02 | [10] -0.03

MLLT11 (UniProt Q13015)
inactive: [1] 0.068 | [2] 0.03 | [3] -0.015 | [4] -0.051 | [5] -0.06 | [6] -0.029 | [7] -0.204 | [8] 0.107 | [9] 0.011 | [10] 0.055

MIA2 (UniProt Q96PC5)
inactive: [1] 0.04 | [2] -0.003 | [3] -0.031 | [4] 0.067 | [5] 0.013 | [6] -0.054 | [7] -0.057 | [8] 0.042 | [9] 0.007 | [10] 0.042

Next part:

MORF4L1 isoform 2 (UniProt Q9UBU8)
inactive: [1] 0.037 | [2] 0.069 | [3] -0.013 | [4] -0.009 | [5] 0 | [6] 0 | [7] -0.009 | [8] -0.007 | [9] -0.008 | [10] -0.018

MKRN2 (UniProt Q9H000)
inactive: [1] -0.053 | [2] 0.015 | [3] -0.039 | [4] -0.115 | [5] 0.008 | [6] 0.023 | [7] 0.014 | [8] -0.039 | [9] -0.005 | [10] 0.021

MLH1 (UniProt P40692)
inactive: [1] 0 | [2] 0.014 | [3] -0.007 | [4] 0.03 | [5] 0.031 | [6] -0.043 | [7] 0.005 | [8] 0.061 | [9] 0.067 | [10] -0.046

MIS12 (UniProt Q9H081)
inactive: [1] 0.035 | [2] 0.01 | [3] 0.001 | [4] -0.015 | [5] 0.023 | [6] -0.055 | [7] -0.019 | [8] 0.048 | [9] 0.054 | [10] 0.021

MRPL17 (UniProt Q9NRX2)
inactive: [1] -0.031 | [2] 0.001 | [3] -0.013 | [4] -0.095 | [5] 0.046 | [6] 0.046 | [7] 0.006 | [8] 0 | [9] -0.008 | [10] 0.014

MITD1 (UniProt Q8WV92)
inactive: [1] -0.022 | [2] 0.089 | [3] 0.011 | [4] -0.09 | [5] 0.027 | [6] 0.027 | [7] 0.022 | [8] 0.03 | [9] 0.07 | [10] -0.047

MLYCD (UniProt O95822)
inactive: [1] 0.089 | [2] -0.008 | [3] -0.011 | [4] -0.074 | [5] 0.038 | [6] -0.058 | [7] 0.044 | [8] 0.118 | [9] -0.042 | [10] -0.015

MINDY3 (UniProt Q9H8M7)
inactive: [1] 0.006 | [2] -0.006 | [3] -0.035 | [4] 0.028 | [5] 0.095 | [6] 0.009 | [7] -0.035 | [8] 0.037 | [9] 0.006 | [10] 0.038

MOSPD2 (UniProt Q8NHP6)
inactive: [1] 0.054 | [2] -0.146 | [3] 0.006 | [4] -0.009 | [5] 0.015 | [6] -0.096 | [7] 0.089 | [8] -0.034 | [9] -0.043 | [10] -0.026

MPHOSPH10 (UniProt O00566)
inactive: [1] -0.051 | [2] 0.033 | [3] -0.001 | [4] -0.078 | [5] 0.082 | [6] 0.006 | [7] -0.057 | [8] 0.026 | [9] -0.039 | [10] -0.064

MICALL2 (UniProt Q8IY33)
inactive: [1] 0.004 | [2] -0.029 | [3] 0.028 | [4] -0.013 | [5] -0.005 | [6] -0.037 | [7] -0.024 | [8] -0.006 | [9] 0.044 | [10] 0.001

MICOS10 (UniProt Q5TGZ0)
inactive: [1] 0.028 | [2] -0.062 | [3] -0.138 | [4] -0.034 | [5] 0.064 | [6] 0 | [7] -0.076 | [8] 0.049 | [9] -0.062 | [10] -0.008
